Source: PubChem BioAssay AID743121 (NCATS, 2013)
This is an unselected part of about 26,000 reagents tested. 167 of them (0.63%) count as active. 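Calls are per gene from RSA p-values that are not deposited; an individual active-marked siRNA can sensitise only weakly.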 Reagents against one gene are numbered here.

Screen: 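Knock-downs that sensitise breast cancer cells to camptothecin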 (primary screen)
System: MDA-MB-231 cells, a human breast cancer line
Reagent: single siRNA against human genes, 20 nM siRNA (0.8 pmol per well)
Timing: 120 h (drug added 48 h after transfection, read 72 h later)
Treatment: camptothecin 20 nM (about EC30) for 72 h; vehicle 0.1% DMSO in parallel plates
Measurement: 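CellTiter-Glo ATP signal, scaled to control siRNA as percent viability; sensitisation given as log2 of untreated divided by camptothecin-treated viability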
Scale: log2 vehicle/camptothecin viability: higher = stronger sensitisation to camptothecin; viability with camptothecin and viability without drug: higher = more viable cells
Active means: 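Active genes have an RSA gene-level p-value below 0.001, computed from the ratios of their separate siRNAs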

no.	gene symbol	reagent	log2 vehicle/camptothecin viability	viability with camptothecin (% of control)	viability without drug (% of control)	outcome
1	PRDM8 (PR/SET domain 8)	1	-0.0647	58.9	56.3	inactive
2	PRDM8 (PR/SET domain 8)	2	-0.205	84	72.9	inactive
3	PRDM8 (PR/SET domain 8)	3	0.00243	83.7	83.8	inactive
4	PRDM8 (PR/SET domain 8)	4	-0.222	74.6	63.9	inactive
5	TM7SF3 (transmembrane 7 superfamily member 3)	1	-0.287	99.5	81.6	inactive
6	TM7SF3 (transmembrane 7 superfamily member 3)	2	-0.681	100	62.5	inactive
7	TM7SF3 (transmembrane 7 superfamily member 3)	3	0.224	79.7	93.1	inactive
8	TM7SF3 (transmembrane 7 superfamily member 3)	4	0.0521	68	70.6	inactive
9	TNFAIP3 (TNF alpha induced protein 3)	1	-0.0487	39	37.7	inactive
10	TNFAIP3 (TNF alpha induced protein 3)	2	0.811	34.3	60.2	inactive
11	TNFAIP3 (TNF alpha induced protein 3)	3	0.0276	40.4	41.2	inactive
12	PLXNA4 (plexin A4)	1	-0.729	39.8	24	inactive
13	PLXNA4 (plexin A4)	2	-0.229	12.8	10.9	inactive
14	PLXNA4 (plexin A4)	3	-0.408	52.9	39.9	inactive
15	PLXNA4 (plexin A4)	4	0.113	86.4	93.5	inactive
16	MED6 (mediator complex subunit 6)	1	-0.354	119	93.4	inactive
17	MED6 (mediator complex subunit 6)	2	0.0261	46	46.8	inactive
18	MED6 (mediator complex subunit 6)	3	-0.0693	47.4	45.1	inactive
19	MED6 (mediator complex subunit 6)	4	-0.274	82.3	68.1	inactive
20	XCL1 (X-C motif chemokine ligand 1)	1	-0.411	89.4	67.3	inactive
21	XCL1 (X-C motif chemokine ligand 1)	2	-0.0462	92.2	89.3	inactive
22	XCL1 (X-C motif chemokine ligand 1)	3	-0.0206	89.9	88.6	inactive
23	XCL1 (X-C motif chemokine ligand 1)	4	-0.144	108	98.1	inactive
24	XCL1 (X-C motif chemokine ligand 1)	5	0.135	83.6	91.7	inactive
25	XCL1 (X-C motif chemokine ligand 1)	6	-0.424	73.8	55.1	inactive
26	XCL1 (X-C motif chemokine ligand 1)	7	0.825	17.3	30.6	inactive
27	XCL1 (X-C motif chemokine ligand 1)	8	-0.352	71.2	55.8	inactive
28	TENM3 (teneurin transmembrane protein 3)	1	0.167	35	39.2	inactive
29	TENM3 (teneurin transmembrane protein 3)	2	-0.332	111	88.5	inactive
30	TENM3 (teneurin transmembrane protein 3)	3	0.187	56.4	64.2	inactive
31	TENM3 (teneurin transmembrane protein 3)	4	-0.827	45.1	25.4	inactive
32	CERKL (CERK like autophagy regulator)	1	-0.2	93.4	81.3	inactive
33	CERKL (CERK like autophagy regulator)	2	-0.215	49	42.2	inactive
34	CERKL (CERK like autophagy regulator)	3	-0.424	57	42.5	inactive
35	CERKL (CERK like autophagy regulator)	4	-0.603	98.9	65.1	inactive
36	ATM (ATM serine/threonine kinase)	1	-0.153	104	93.4	inactive
37	ATM (ATM serine/threonine kinase)	2	0.169	65.9	74.1	inactive
38	ATM (ATM serine/threonine kinase)	3	-0.537	63.9	44	inactive
39	ATM (ATM serine/threonine kinase)	4	-0.298	63.7	51.8	inactive
40	CCR1 (C-C motif chemokine receptor 1)	1	-0.222	69.6	59.7	inactive
41	CCR1 (C-C motif chemokine receptor 1)	2	-0.349	101	79.4	inactive
42	CCR1 (C-C motif chemokine receptor 1)	3	-0.226	77.2	66	inactive
43	CCR1 (C-C motif chemokine receptor 1)	4	-0.0885	58.6	55.2	inactive
44	NPY (neuropeptide Y)	1	-0.0718	85.4	81.2	inactive
45	NPY (neuropeptide Y)	2	0.321	67.5	84.3	inactive
46	NPY (neuropeptide Y)	3	-0.426	69.9	52.1	inactive
47	NPY (neuropeptide Y)	4	0.0799	82.1	86.8	inactive
48	F12 (coagulation factor XII)	1	-0.317	58.2	46.7	inactive
49	F12 (coagulation factor XII)	2	-0.43	70.6	52.4	inactive
50	F12 (coagulation factor XII)	3	-0.0635	95.8	91.6	inactive
51	F12 (coagulation factor XII)	4	-0.0658	65.4	62.5	inactive
52	MAPKAP1 (MAPK associated protein 1)	1	-0.0412	78.7	76.5	inactive
53	MAPKAP1 (MAPK associated protein 1)	2	0.244	45.5	53.8	inactive
54	MAPKAP1 (MAPK associated protein 1)	3	-0.219	61.4	52.7	inactive
55	MAPKAP1 (MAPK associated protein 1)	4	-0.22	79	67.8	inactive
56	MMP23A (matrix metallopeptidase 23A (pseudogene))	1	-0.575	94.8	63.6	inactive
57	CCNE2 (cyclin E2)	1	-0.104	105	97.7	inactive
58	CCNE2 (cyclin E2)	2	-0.207	55.1	47.8	inactive
59	CCNE2 (cyclin E2)	3	-0.402	68.8	52	inactive
60	MSC (musculin)	1	0.00189	69.7	69.8	inactive
61	MSC (musculin)	2	-0.629	65.2	42.1	inactive
62	MSC (musculin)	3	-0.508	82.9	58.3	inactive
63	MSC (musculin)	4	0.144	82.6	91.3	inactive
64	RYR2 (ryanodine receptor 2)	1	0.28	63.9	77.6	inactive
65	RYR2 (ryanodine receptor 2)	2	-0.311	81.9	66	inactive
66	RYR2 (ryanodine receptor 2)	3	0.447	59.8	81.6	inactive
67	RYR2 (ryanodine receptor 2)	4	-0.131	96.5	88.1	inactive
68	ZNF875 (zinc finger protein 875)	1	-0.194	45.2	39.5	inactive
69	ZNF875 (zinc finger protein 875)	2	-0.178	101	88.9	inactive
70	ZNF875 (zinc finger protein 875)	3	0.0455	41.6	42.9	inactive
71	ZNF875 (zinc finger protein 875)	4	-0.163	79.7	71.2	inactive

4 neighbouring reagents from above, for reference:
no.	gene symbol	reagent	log2 vehicle/camptothecin viability	viability with camptothecin (% of control)	viability without drug (% of control)	outcome
31	TENM3 (teneurin transmembrane protein 3)	4	-0.827	45.1	25.4	inactive
32	CERKL (CERK like autophagy regulator)	1	-0.2	93.4	81.3	inactive
33	CERKL (CERK like autophagy regulator)	2	-0.215	49	42.2	inactive
34	CERKL (CERK like autophagy regulator)	3	-0.424	57	42.5	inactive
